Experimental data reported in paper PMC4200232.
No constants are given. Whether binding was seen depends on the method and setting. Binding seen in cells or lysates may run through a third protein. Some results given as binding are weak or reduced against the parent protein; the word gives no strength. Values belong to the molecule of their own block, whether it stands above or below them.

Sequences of proteins named here, by UniProt entry; tags and fusion partners are left off. Residues count along the entry.
UniProt P21926: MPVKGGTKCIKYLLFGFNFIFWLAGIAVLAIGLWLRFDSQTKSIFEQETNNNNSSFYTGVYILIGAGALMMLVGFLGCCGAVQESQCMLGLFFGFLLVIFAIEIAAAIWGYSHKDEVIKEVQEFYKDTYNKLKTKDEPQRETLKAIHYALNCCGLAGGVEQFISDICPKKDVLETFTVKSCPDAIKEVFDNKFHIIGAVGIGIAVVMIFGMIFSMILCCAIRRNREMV
UniProt Q9H5V8, residues 30-836: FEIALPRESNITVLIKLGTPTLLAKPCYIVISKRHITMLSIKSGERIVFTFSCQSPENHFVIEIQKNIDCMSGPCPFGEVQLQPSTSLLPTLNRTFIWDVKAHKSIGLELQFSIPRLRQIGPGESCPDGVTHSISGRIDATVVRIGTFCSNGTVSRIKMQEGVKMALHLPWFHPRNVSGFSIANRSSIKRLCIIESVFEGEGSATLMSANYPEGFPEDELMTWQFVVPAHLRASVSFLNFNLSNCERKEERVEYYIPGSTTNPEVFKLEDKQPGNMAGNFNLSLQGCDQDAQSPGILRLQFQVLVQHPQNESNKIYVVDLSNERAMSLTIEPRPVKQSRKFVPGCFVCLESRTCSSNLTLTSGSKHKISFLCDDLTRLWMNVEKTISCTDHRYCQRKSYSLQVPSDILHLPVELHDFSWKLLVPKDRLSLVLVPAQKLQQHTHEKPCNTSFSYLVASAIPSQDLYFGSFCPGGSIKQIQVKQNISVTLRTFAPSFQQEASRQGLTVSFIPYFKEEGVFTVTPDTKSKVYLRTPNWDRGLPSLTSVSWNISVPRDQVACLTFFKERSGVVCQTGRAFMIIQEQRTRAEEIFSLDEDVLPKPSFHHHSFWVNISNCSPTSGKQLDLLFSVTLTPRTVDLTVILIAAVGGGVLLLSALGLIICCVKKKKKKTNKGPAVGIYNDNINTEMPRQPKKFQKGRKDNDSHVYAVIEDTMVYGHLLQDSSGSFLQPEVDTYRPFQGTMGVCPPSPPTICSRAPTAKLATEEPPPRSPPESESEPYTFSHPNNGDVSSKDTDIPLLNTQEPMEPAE

Target: tetraspanin CD9 (human (endogenous in SW480 and HT-29)) (UniProt P21926)
Experiment: co-IP; SW480 cells lysed in 1% (w/v) Brij97, 10 mM Tris-HCl pH 7.4, 150 mM NaCl, 1 mM CaCl2, 1 mM MgCl2; 500 ug lysate protein; CD9 precipitated with 5 ug mouse anti-CD9 clone ALB6 and protein G beads overnight at 4°C; Western blot for CDCP1, EpCAM and CD9; isotype-matched IgG and beads alone as controls

- binding: binds
Molecule: CUB domain-containing protein-1 (CDCP1) (from UniProt Q9H5V8 30-836)

- binding: binds
B1: Epithelial cell adhesion molecule (EpCAM) (protein, UniProt P16422 24-314)
chain: QEECVCENYKLAVNCFVNNNRQCQCTSVGAQNTVICSKLAAKCLVMKAEMNGSKLGRRAKPEGALQNNDGLYDPDCDESGLFKAKQCNGTSMCWCVNTAGVRRTDKDTEITCSERVRTYWIIIELKHKAREKPYDSKSLRTALQKEITTRYQLDPKFITSILYENNVITIDLVQNSSQKTQNDVDIADVAYYFEKDVKGESLFHSKKMDLTVNGEQLDLDPGQTLIYYVDEKAPEFSMQGLKAGVIAVIVVVVIAVVAGIVVLVISRKKRMAKYEKAEIKEMGEMHRELNA
